# Experimental data taken from the supplement of paper PMC12889115.
# Some of the results follow. Values are raw readings; no control value is given beside them.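 Primary screen: polymyxin B was added at a level permeabilizing Salmonella outer membranes while sparing inner membranes. DMSO wells, both with and without polymyxin B, established maximum growth. Plate-to-plate variation meant each plate was ranked on its own, and the lowest-OD600 compounds were selected as hits.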
# System: Salmonella enterica serovar Typhimurium SL1344
# Test: bacterial growth OD600 after 18 h with compound and polymyxin B; higher = more bacterial growth (less inhibition)
# Conditions: 50 µM, Mueller-Hinton broth
SMILES,bacterial growth OD600 (polymyxin B 0.75 µg/mL),bacterial growth OD600 (polymyxin B 1 µg/mL)
CN(C(=O)c1ccccn1)C(Cc1ccccc1)C1CCN(C(=O)c2cc3ccccc3o2)CC1 (stereo not given),0.504,–
CCOC(=O)CNC(=O)N1CCc2onc(-c3ccc(Cl)cc3)c2C1,0.993,–
CCOC(=O)CNC(=O)N1CCCC(C(=O)c2cccc(C(F)(F)F)c2)C1 (stereo not given),–,0.87
O=C(CCC1CCCN(C(=O)CN2CCOC2=O)C1)N1CCN(Cc2ccccc2)CC1 (stereo not given),–,1.24
CN1CCN([C@@H]2CCN(Cc3ccc(C4CCCC4)s3)C[C@H]2O)CC1,0.766,–
COc1ccccc1Oc1ncccc1CNC(=O)Cn1cncn1,–,0.897
CC(C)[C@H]1CN(C)CCN1C(=O)c1csc2nc(-c3ccc(Cl)cc3)cn12,–,0.909
CC(C)(C)c1cc(CNC(=O)C2CCC(=O)N(CCc3ccccn3)C2)n[nH]1 (stereo not given),–,1.07
CSCC(=O)NC1CC(=O)N(CCc2cccc(Cl)c2)C1 (stereo not given),–,0.902
CCc1ccc(CN2CCC(CCC(=O)Nc3ccc(OC)cc3OC)CC2)o1,–,1.21
CN(Cc1ccccc1)C(=O)CCC1CCN(S(=O)(=O)c2cccs2)CC1,–,0.903
O=C(C1CCCC1)N1CCCC(CCc2ccccc2)C1 (stereo not given),0.091,–
COc1cc2nc(N(C)C)c(CNCCc3ccccc3F)cc2c(OC)c1OC,0.835,–
COc1ccc(CCN2CCC(CN(C)Cc3cccc(C(C)=O)c3)CC2)cc1,–,0.78
COC(=O)C1CCN(CC2(O)CCCN(Cc3cccc(C)c3)C2=O)CC1 (stereo not given),–,0.884
O=C(NCC1CCCN(c2ncccn2)C1)c1coc(CN2CCc3ccccc3C2)n1 (stereo not given),–,0.68
Fc1ccccc1CN1CCCC(NCC2CC2)C1 (stereo not given),0.861,–
O=C(NCc1ccon1)c1coc(CN2CCN(Cc3ccccc3)CC2)n1,–,0.991
Cc1occc1C(=O)N(C)C(Cc1ccccc1)C1CCN(C(=O)C2COc3ccccc3O2)CC1 (stereo not given),0.006,–
CCCS(=O)(=O)N1CCC(C2CCN(Cc3cccnc3)CC2)C1 (stereo not given),0.916,–

# Single values from above.
# bacterial growth OD600 (polymyxin B 1 µg/mL) with O=C(NCc1ccon1)c1coc(CN2CCN(Cc3ccccc3)CC2)n1 is entered as 0.991
# bacterial growth OD600 (polymyxin B 1 µg/mL) with CSCC(=O)NC1CC(=O)N(CCc2cccc(Cl)c2)C1 (stereo not given) is entered as 0.902
